Measurements taken from the supplement of paper PMC12889115.
The list shows a part of the results. These are raw signals, not scaled to a control.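 Primary screen: polymyxin B was added at a level permeabilizing Salmonella outer membranes while sparing inner membranes. DMSO wells, both with and without polymyxin B, established maximum growth. Plate-to-plate variation meant each plate was ranked on its own, and the lowest-OD600 compounds were selected as hits.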

Test system: Salmonella enterica serovar Typhimurium SL1344
Assay: bacterial growth OD600 after 18 h with compound and polymyxin B; higher = more bacterial growth (less inhibition)
Details: 50 µM, Mueller-Hinton broth

| Compound | bacterial growth OD600 (polymyxin B 0.75 µg/mL) | bacterial growth OD600 (polymyxin B 1 µg/mL) |
| --- | --- | --- |
| COc1ccccc1NC(=O)Nc1ccnn1C1CCN(C(=O)c2ccoc2)CC1 | 0.832 | – |
| CCC1CN(CCC(=O)NCC(c2cccnc2)N2CCOCC2)Cc2cc(OC)ccc2O1 (stereo not given) | 0.803 | – |
| COCC(=O)N1CCC(Oc2ccc(C(=O)NCCc3nc(C)cc(C)n3)cc2)CC1 | – | 0.965 |
| Cn1ccnc1CN1CCN(Cc2nc(-c3ccccc3)no2)CC1 | 0.934 | – |
| COc1ccc(OC)c(C(=O)NCc2cccnc2-n2ccnc2)c1 | 0.865 | – |
| O=C1N(C2CCCC2)C[C@@H]2C[C@@H](c3cnn(-c4ccccc4)c3)N3CCC[C@@]123 | 0.869 | – |
| COCCN1C(=O)CC(CC(=O)N2CCCOc3c(cccc3OC)C2)(c2ccccc2OC)C1=O (stereo not given) | 1.03 | – |
| CCOC(=O)C1(CCCc2ccccc2)CCN(C(=O)C2CC(C(C)C)=NO2)CC1 (stereo not given) | – | 0.553 |
| COCC(C)NC(=O)Cc1c2c(n(Cc3ccc(F)cc3)c1C)CCCC2=O (stereo not given) | 0.93 | – |
| NC(=O)[C@@H]1CCCN1C(=O)c1ccc2nc(C3CCCCC3)oc2c1 | 0.792 | – |
| CSc1ncc(CN2CCC(CCC(=O)N3CCN(c4ccccc4)CC3)CC2)cn1 | 0.788 | – |
| C=CCCC(=O)NC1CCCN(CC2CCCCC2)C1 (stereo not given) | – | 1.13 |
| CCC(COC)NC(=O)CN1Cc2cc(OC)ccc2OC(CC)C1 (stereo not given) | 0.957 | – |
| CC(C)Cc1cc(CN2CCCC(CO)(Cc3cccc(Cl)c3)C2)n[nH]1 (stereo not given) | – | 0.655 |
| O=C(Cc1ccsc1)NCC1Cc2cccc(-c3ncccn3)c2O1 (stereo not given) | 0.762 | – |
| CCn1nc(C)c(CNC2CCN(c3ccc(CC(=O)N4CCC[C@H]4C(=O)OC)cc3)CC2)c1C | 0.863 | – |
| Cc1cc(CNCc2nc3ccccc3[nH]2)c2[nH]c(C)c(C)c2c1 | – | 1.03 |
| CCOC(=O)c1n[nH]cc1CN1CCCC(Cc2ccc(F)cc2F)(C(=O)OCC)C1 (stereo not given) | – | 0.894 |
| O=C(CN1CCOC1=O)N1CCCC(CCc2ccc(F)c(F)c2)C1 (stereo not given) | 0.62 | – |
| CC(C)n1cc(C(=O)NCC2CCCCC2)c(=O)c(C(=O)N2CCN(C(=O)c3ccco3)CC2)c1 | 0.865 | – |

Reprinted at random: 2 compounds from above, in no set order.

| Compound | bacterial growth OD600 (polymyxin B 0.75 µg/mL) | bacterial growth OD600 (polymyxin B 1 µg/mL) |
| --- | --- | --- |
| COCC(=O)N1CCC(Oc2ccc(C(=O)NCCc3nc(C)cc(C)n3)cc2)CC1 | – | 0.965 |
| CSc1ncc(CN2CCC(CCC(=O)N3CCN(c4ccccc4)CC3)CC2)cn1 | 0.788 | – |
